# Data reported in PubChem BioAssay AID2685 (National Center for Advancing Translational Sciences (NCATS), 2010).
# About 2,100 (0.66%) of roughly 320,000 compounds were called active. The shares of active, inactive and inconclusive entries below differ from those in the screen. Calls follow the shape of the dose curve; as a rule, active = well fitted inhibition curve with a large enough effect in the signal ratio, with a control signal flat (not every such curve was filed as active); inconclusive = small, poorly fitted or top-dose-only effect, or effect the other way, or a change in a side signal; inactive = flat fitted curve, though single readings scatter; the % refers to the signal ratio. Potencies beside an inconclusive call are fits to weak or partial responses and may not hold up.
# Assay: qHTS Assay for Lipid Storage Modulators in Drosophila S3 Cells
# Details: BODIPY lipid droplet fluorescence, 18-24 h, cells fed with added oleic acid; lipid storage change, negative = inhibition: at 46.1 µM (top of the series) unless noted
# Summary of the method: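 Laser-scanning cytometry quantifies lipid droplet accumulation (500–530 nm total intensity; droplet/cell object ratio) in oleic acid-fed (400 uM added) Drosophila S3 cells treated with a concentration series. 20 uM Triacsin C defined 100% inhibition.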
# % is scaled to controls: 0 for no effect and ±100 for the full control effect; potency is read from the fitted curve at half-maximal effect.
SMILES,Potency,"lipid storage change, negative = inhibition"
COCCNC(=O)CN1C2CCC1CC(O)(c1cccnc1)C2 (stereo unspecified),"inconclusive: 6.51 µM [activator, single point]",–
COc1ccccc1CNC(=O)CCNS(=O)(=O)c1ccc2c(c1)oc(=O)n2C,"inconclusive: 29.1 µM [activator, single point]",–
C[N+]12CCC(CC1)C(C#N)(N1CCOCC1)C2 (stereo unspecified),"inconclusive: 2.31 µM [falling, single point]",–
Cc1nn(Cc2ccccc2)c(Cl)c1C(=O)OCC(=O)NCC1CCCO1 (stereo unspecified),–,inconclusive: -19%
CN1CCN(Cc2ccccc2C(F)(F)F)CC1,"inconclusive: 11.6 µM [activator, partial curve]",–
O=C1/C(=C/c2ccc([N+](=O)[O-])cc2)N2CCC1CC2,–,inconclusive: -23.3%
CC(=NC(C)c1ccccc1)c1c(O)[nH]c(=O)[nH]c1=O (stereo unspecified),–,inconclusive: 0.019%
CC(C(=O)c1c[nH]c2ccccc12)N1CCOCC1 (stereo unspecified),–,inconclusive: -28.4%
CCCNC(=O)N1[C@H]2CC[C@@H]1C(C(=O)OC)=C(c1cccc(C#N)c1)C2,–,inconclusive: -24.4%
CCOC(=O)[C@]1(C#N)[C@@H]2C=CC(C(C)=O)=CN2[C@@H](C(N)=O)[C@@H]1c1ccsc1,"inconclusive: 1.46 µM [falling, full curve, poor fit]",–
O=C(Nc1cccnc1)c1c(O)c2c(n(Cc3ccccc3)c1=O)CCCC2,–,inconclusive: -33.3%
C=CC[C@@H](C)CC(=O)C(CCCN=[N+]=[N-])SOOc1ccccc1 (stereo partly specified),–,inconclusive: 15.9%
N#Cc1c(N2CCNCC2)nc(-c2ccco2)c2c1CCCC2,–,inactive
CCc1nccc2c1[nH]c1ccccc12,–,inconclusive: 2.66%
O=[N+]([O-])c1ccc(Cl)c([N+](=O)[O-])c1,"inconclusive: 13 µM [falling, partial curve, poor fit]",–
c1ccc2c(c1)CNc1ccccc1O2,"inconclusive: 6.51 µM [activator, partial curve]",–
Clc1cc(Cl)c(Cl)cc1Cl,"inconclusive: 0.082 µM [activator, full curve, poor fit]",–
CC(=O)c1cccc(OCC(O)CN2CC=C(c3ccccc3)CC2)c1 (stereo unspecified),"inconclusive: 0.366 µM [falling, full curve, poor fit]",–
COc1ccc(C2N(c3cc(C)on3)C(=O)C3CCCN32)cc1 (stereo unspecified),–,inconclusive: -49.2% [at 9.22 µM]
NC1CCCCC1N=Cc1c(O)n(Cc2ccc(F)cc2)c(=O)[nH]c1=O (stereo unspecified),–,inconclusive: -3.21%
COCCOC(=O)C1=C(N)Oc2c(c(=O)oc3ccccc23)C1c1ccncc1 (stereo unspecified),"inconclusive: 6.51 µM [activator, partial curve]",–

# Structural class, those above containing sulfur
SMILES,Potency,"lipid storage change, negative = inhibition"
COc1ccccc1CNC(=O)CCNS(=O)(=O)c1ccc2c(c1)oc(=O)n2C,"inconclusive: 29.1 µM [activator, single point]",–
CCOC(=O)[C@]1(C#N)[C@@H]2C=CC(C(C)=O)=CN2[C@@H](C(N)=O)[C@@H]1c1ccsc1,"inconclusive: 1.46 µM [falling, full curve, poor fit]",–
C=CC[C@@H](C)CC(=O)C(CCCN=[N+]=[N-])SOOc1ccccc1 (stereo partly specified),–,inconclusive: 15.9%
